Measured values as given in paper PMC11928855.
Results are given in words; binding and its absence hold for the method and conditions named. Binding seen in cells or lysates may run through a third protein. Some entries that bind do so weakly or less than the wild type.

Chains of the proteins cited; added tags and fusions are not shown.
UniProt P01106: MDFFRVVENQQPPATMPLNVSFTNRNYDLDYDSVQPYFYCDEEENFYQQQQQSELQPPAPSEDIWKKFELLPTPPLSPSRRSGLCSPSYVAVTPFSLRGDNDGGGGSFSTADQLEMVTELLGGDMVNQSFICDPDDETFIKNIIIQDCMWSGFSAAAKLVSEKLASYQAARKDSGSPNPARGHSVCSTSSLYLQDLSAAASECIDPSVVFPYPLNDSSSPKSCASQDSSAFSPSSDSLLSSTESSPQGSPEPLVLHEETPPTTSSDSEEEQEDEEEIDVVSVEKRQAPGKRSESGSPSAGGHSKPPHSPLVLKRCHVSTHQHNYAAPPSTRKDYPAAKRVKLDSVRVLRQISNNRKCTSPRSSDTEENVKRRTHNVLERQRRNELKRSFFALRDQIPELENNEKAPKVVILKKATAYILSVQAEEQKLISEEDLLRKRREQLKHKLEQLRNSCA

Biological target: T1, activating transcription factor 5 (ATF5) (human (endogenous in KP4)) (UniProt Q9Y2D1)
T1 sequence: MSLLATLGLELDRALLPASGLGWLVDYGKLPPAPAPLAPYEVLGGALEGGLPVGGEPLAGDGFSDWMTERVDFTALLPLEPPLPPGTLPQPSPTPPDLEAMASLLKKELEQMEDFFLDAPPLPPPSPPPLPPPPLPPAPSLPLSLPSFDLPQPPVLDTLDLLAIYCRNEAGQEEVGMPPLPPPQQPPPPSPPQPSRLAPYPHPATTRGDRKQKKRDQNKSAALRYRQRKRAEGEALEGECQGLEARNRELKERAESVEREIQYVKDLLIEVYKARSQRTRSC
Assay: co-IP; lysates of KP4 cells cultured 48 h on collagen-coated plastic dishes (stiff) or on polyacrylamide gels (stiff and soft ECMs); incubated with anti-ATF5 antibody (SD2099) or normal rabbit IgG at 4°C overnight, Capturem IP & Co-IP kit; western blotting with anti-MYC or anti-ATF5 antibody

## MYC (from UniProt P01106 1-454)
  binding: binds
